No constants are given. Whether binding was seen depends on the method and setting. In cells and extracts the contact can be indirect. Binding calls can cover weak binding; strength is not graded here.

For five molecules, binding results are on record in article PMC4392834.

The target of the experiment is HX-mutated HoxE (VC fusion) (Nematostella). Description: split reporter; Venus BiFC: VC-Hox and VN-TF co-expressed in live Drosophila embryos with the corresponding Hox-Gal4 driver (abdA-Gal4 for AbdA); epidermis, stage 10-12, quantified at stage 10; affected if equal or lower than 50% of wild type, stronger if 120% or more.

B1: VN-Pan (protein, UniProt P91943 1-751)
chain: MPHTHSRHGSSGDDLCSTDEVKIFKDEGDREDEKISSENLLVEEKSSLIDLTESEEKGHKISRPDHSPVFNKLDTHAPSFNMGYLVSPYSYANGSPSGLPVTMANKIGLPPFFCHNADPLSTPPPAHCGIPPYQLDPKMGLTRPALYPFAGGQYPYPMLSSDMSQVASWHTPSVYSASSFRTPYPSSLPINTTLASDFPFRFSPSLLPSVHATSHHVINAHSAIVGVSSKQECGVQDPTTNNRYPRNLEAKHTSNAQSNESKETTNDKKKPHIKKPLNAFMLYMKEMRAKVVAECTLKESAAINQILGRRWHELSREEQSKYYEKARQERQLHMELYPGWSARDNYGYVSKKKKRKKDRSTTDSGGNNMKKCRARFGLDQQSQWCKPCRRKKKCIRYMEALNGNGPAEDGSCFDEHGSQLSDDDEDDYDDDKLGGSCGSADETNKIEDEDSESLNQSMPSPGCLSGLSSLQSPSTTMSLASPLNMNANSATNVIFPASSNALLIVGADQPTAQQRPTLVSTSGSSSGSTSSISTTPNTSSTVSPVTCMTGPCLGSSQERAMMLGNRFSHLGMGLSPPVVSTSTSKSEPFFKPHPTVCNNPIFALPSIGNCSLNISSMPNTSRNPIGANPRDINNPLSINQLTKRREYKNVELIEASESKTIVAHAATSIIQHVAVNGYHANHSLLNSNLGHLHHQLNNRTENPNRSEQTMLSVSNHSVNSSECHKESDSQAIVSSNPPNAGSSDNGVISVS
With B1, the binding result was “binds”.

B2: VN-Eyes absent (protein, UniProt Q05201 1-766)
chain: MVTLMPYNYAAPRCGLIDKMIEPKVKRPKTDHTDTHERNRLCNLSQQQQQQQPQQQQTHQQQQQQQQQSHQQSHSSTVLASNGPSSAGAGMGVGVGGGGGSGGGVGGGVGQCSPLGLPPQSQPLQPTIGSLASLSGHYSNGNANPNVNSSSCSLATASSFAQSAGSSFSTYQQAGGTSGGVSGEDGVVGGATVMSHWTHDGTGSSAAVKSESRSPGQVHASLDNGSVAGSNLYGCSSASNPLDGGAVAVNSSAVAAAAAAVYDGKHDYYYYNSMQQYTPPPFYSGYGTPYAAATAARQAKMEPGAAAAAAAYLTPSYAASGNNNSQLYSSPYAGYNNFGQQDYGGYYNEQYGNYYSPANYSPYAVSSPSSSASHGHGFHVAASSNLSESPTDTHSTTPVHQTTHSPHSPLPISPSTGSGIGPLGNVSAAAAAAALNSSGGSSVGTAGSGGVATSKTTPTGKTGRARGRRHQQPSPTRSTASDTGNSEAVKPPERVFVWDLDETLIIFHTLLSGSYANRYTKDHSSLMTIAFRMEEMVFNMADTHFFFNEIEECDQVHIDDVSSDDNGQDLSAYNFATDGFHTNTPPGAPPNLCLPTGVRGGVDWMRKLAFRYRKIKDIYNSYRGNVGTLLGPGKREAWLQIRSEIEVATDNWATLALKCLSMISQRENCVNVLVTSTQLAPALAKVLLFGLGGIFNIENIYSAHKIGHETCYERIVTRFGRKSTYVVIGDGNEEETAAKAMNFPFWRISAHSDIRALYTALDMGFL
With B2, the binding entry is listed as “binds”.

B3: VN-Empty spiracles (protein, UniProt P18488 1-494)
chain: MTKMIPPVPTAAAAVMMPTPKQKIGFSIESIVGNDVSTAGGNSTPDLSGPQSPPPGERNVPGSPPQTPPATLTLIPGSPPHHLMAPPAHGLPYPHPHAQQQHLQAPHPHPHLSPAQQHVLHQHLLMQQQHPGTPKSHQDIQELLQRLHHNAAMASGLSPLQTRLSPETEQPQMAVSLKRERSPAPPAMEQAENPAQRIQPPHTPPKSVSPQSSQPSSSPTLLISSPHATPPQQQQQQPPPNYPKPAMMHPGGAGPMMMPGMPPAGLVRPFPMGPGGPPMPQGQPGLPDIKALPPYINAPPELPPQHNPHLIAAAQFQMAAALQAGHVLGPAAAAAAAAGLPPHAAQFMPNPGMARDSYQLYPWLLSRHGRIFPHRFPGSFLVPPFRKPKRIRTAFSPSQLLKLEHAFESNQYVVGAERKALAQNLNLSETQVKVWFQNRRTKHKRMQQEDEKGGEGGSQRNMHNGSGDEDDDELIDMEMDECPSDEEHELDASH
Regarding B3, the binding entry is “binds”.

B4: VN-Bagpipe (protein, UniProt P22809 1-382)
chain: MLNMESAGVSAAMAGLSKSLTTPFSINDILTRSNPETRRMSSVDSEPEPEKLKPSSDRERSISKSPPLCCRDLGLYKLTQPKEIQPSARQPSNYLQYYAAAMDNNNHHHQATGTSNSSAADYMQRKLAYFGSTLAAPLDMRRCTSNDSDCDSPPPLSSSPSESPLSHDGSGLSRKKRSRAAFSHAQVFELERRFAQQRYLSGPERSEMAKSLRLTETQVKIWFQNRRYKTKRKQIQQHEAALLGASKRVPVQVLVREDGSTTYAHMAAPGAGHGLDPALINIYRHQLQLAYGGLPLPQMQMPFPYFYPQHKVPQPIPPPTQSSSFVTASSASSSPVPIPIPGAVRPQRTPCPSPNGQMMSVESGAESVHSAAEDVDENVEID
As for B4, the binding result is given as “binds”.

B5: VN-Kn (protein, UniProt P56721 1-575)
chain: MEWGRKLYPSAVSGPRSAGGLMFGLPPTAAVDMNQPRGPMTSLKEEPLGSRWAMQPVVDQSNLGIGRAHFEKQPPSNLRKSNFFHFVIALYDRAGQPIEIERTAFIGFIEKDSESDATKTNNGIQYRLQLLYANGARQEQDIFVRLIDSVTKQAIIYEGQDKNPEMCRVLLTHEVMCSRCCDKKSCGNRNETPSDPVIIDRFFLKFFLKCNQNCLKNAGNPRDMRRFQVVISTQVAVDGPLLAISDNMFVHNNSKHGRRAKRLDTTEGTGNTSLSISGHPLAPDSTYDGLYPPLPVATPCIKAISPSEGWTTGGATVIIVGDNFFDGLQVVFGTMLVWSELITSHAIRVQTPPRHIPGVVEVTLSYKSKQFCKGSPGRFVYVSALNEPTIDYGFQRLQKLIPRHPGDPEKLQKEIILKRAADLVEALYSMPRSPGGSTGFNSYAGQLAVSVQDGSGQWTEDDYQRAQSSSVSPRGGYCSSASTPHSSGGSYGATAASAAVAATANGYAPAPNMGTLSSSPGSVFNSTSMSAVSSTWHQAFVQHHHAATAHPHHHYPHPHQPWHNPAVSAATAAAV
On to B5, for which the binding entry is “binds”.
